No constants are given. Whether binding was seen depends on the method and setting. Some entries that bind do so weakly or less than the wild type.
Columns and labels:
[1] = target: CD28 on CHO cells (UniProt P10747); experiment: flow cytometry, CD28 CHO cells, purified protein at 5 µg/ml
[2] = target: CD28 on CHO cells (UniProt P10747); experiment: flow cytometry, protein A purified protein at 5 ug/mL on CD28 CHO cells, FITC goat anti-human IgG 1:100
[3] = target: CD28mIgG (UniProt P10747); experiment: Western blot, non-reduced, probed with CD28-murine IgG and goat anti-mouse HRP
[4] = target: CD28 on CHO cells (UniProt P10747); experiment: flow cytometry, COS supernatants on CD28 CHO cells, FITC goat anti-human IgG 1:100
[5] = target: CD28 on CHO cells (UniProt P10747); experiment: flow cytometry, CD28 CHO cells, protein A purified protein at 0.72 ug/mL, FITC goat anti-human IgG 1:100

By UniProt entry, the sequences of proteins in these tests, tags left out. Where a name states a change or a piece, a line headed by the entry shows the natural chain unless it says otherwise. Residues count along the entry.
UniProt P10747: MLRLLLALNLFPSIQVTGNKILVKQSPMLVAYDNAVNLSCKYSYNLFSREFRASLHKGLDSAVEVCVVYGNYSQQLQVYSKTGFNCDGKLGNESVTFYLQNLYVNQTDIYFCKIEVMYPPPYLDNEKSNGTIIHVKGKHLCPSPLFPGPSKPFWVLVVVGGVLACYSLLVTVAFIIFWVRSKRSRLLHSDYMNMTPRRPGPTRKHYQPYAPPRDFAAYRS
CD28 on CHO cells: residues 19-220 of P10747
CD28mIgG: residues 19-152 of P10747

binding [1]: binds
binding [2]: binds
binding [3]: binds
binding [4]: binds
binding [5]: binds
B1: 2E12IgG-VHVL SMIP (Fc fusion, not shown: a dimerising Fc or GST)
chain: VQVQLKESGPGLVAPSQSLSITCTVSGFSLTGYGVNWVRQPPGKGLEWLGMIWGDGSTDYNSALKSRLSITKDNSKSQVFLKMNSLQTDDTARYYCARDGYSNFHYYVMDYWGQGTSVTVSSGGGGSGGGGSGGGGSGGGGSDIVLTQSPASLAVSLGQRATISCRASESVEYYVTSLMQWYQQKPGQPPKLLISAASNVESGVPARFSGSGSGTDFSLNIHPVEEDDIAMYFCQQSRKVPWTFGGGTKLEIKR
